Laboratory results from the supplement of paper PMC10849652.
Some of the results follow.

Amino acid sequences for entries named in this document (tags omitted). A change or cut given only in a name is not applied to a line headed by its entry.
UniProt Q969H8: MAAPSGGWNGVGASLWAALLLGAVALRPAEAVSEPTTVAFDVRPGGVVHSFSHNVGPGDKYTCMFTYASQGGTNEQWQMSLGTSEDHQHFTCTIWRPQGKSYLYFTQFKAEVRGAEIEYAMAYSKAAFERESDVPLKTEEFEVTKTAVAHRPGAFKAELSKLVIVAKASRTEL
UniProt Q9Y2A7: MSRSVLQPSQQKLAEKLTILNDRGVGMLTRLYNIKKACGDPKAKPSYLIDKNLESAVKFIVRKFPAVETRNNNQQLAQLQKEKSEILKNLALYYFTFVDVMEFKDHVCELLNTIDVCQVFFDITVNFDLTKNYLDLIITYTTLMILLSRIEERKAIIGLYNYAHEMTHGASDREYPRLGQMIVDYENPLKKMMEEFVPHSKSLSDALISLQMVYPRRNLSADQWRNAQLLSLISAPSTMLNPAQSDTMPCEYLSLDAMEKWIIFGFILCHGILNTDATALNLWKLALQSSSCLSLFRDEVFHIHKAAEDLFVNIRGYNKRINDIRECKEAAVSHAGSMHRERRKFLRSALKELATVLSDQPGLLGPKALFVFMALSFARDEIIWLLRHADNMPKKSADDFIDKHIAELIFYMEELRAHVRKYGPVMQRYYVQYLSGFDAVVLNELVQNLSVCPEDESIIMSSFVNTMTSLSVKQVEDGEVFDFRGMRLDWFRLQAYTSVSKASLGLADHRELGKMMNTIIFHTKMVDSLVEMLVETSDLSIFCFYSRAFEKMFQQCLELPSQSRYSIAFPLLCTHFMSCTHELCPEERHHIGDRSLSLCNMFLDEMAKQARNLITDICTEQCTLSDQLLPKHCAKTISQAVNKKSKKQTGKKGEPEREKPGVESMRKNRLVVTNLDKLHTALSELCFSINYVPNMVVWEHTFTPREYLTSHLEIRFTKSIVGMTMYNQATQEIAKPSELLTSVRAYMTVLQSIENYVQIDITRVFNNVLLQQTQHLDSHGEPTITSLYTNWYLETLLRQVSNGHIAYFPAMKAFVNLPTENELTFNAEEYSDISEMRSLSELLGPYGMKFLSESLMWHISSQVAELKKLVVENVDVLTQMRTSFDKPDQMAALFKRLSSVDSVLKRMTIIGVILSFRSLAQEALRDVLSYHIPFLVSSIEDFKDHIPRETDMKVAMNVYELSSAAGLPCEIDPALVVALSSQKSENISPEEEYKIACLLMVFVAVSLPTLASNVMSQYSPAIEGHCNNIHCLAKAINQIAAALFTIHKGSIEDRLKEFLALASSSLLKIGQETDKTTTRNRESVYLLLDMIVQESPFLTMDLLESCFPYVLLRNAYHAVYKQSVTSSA
UniProt Q9HCD5: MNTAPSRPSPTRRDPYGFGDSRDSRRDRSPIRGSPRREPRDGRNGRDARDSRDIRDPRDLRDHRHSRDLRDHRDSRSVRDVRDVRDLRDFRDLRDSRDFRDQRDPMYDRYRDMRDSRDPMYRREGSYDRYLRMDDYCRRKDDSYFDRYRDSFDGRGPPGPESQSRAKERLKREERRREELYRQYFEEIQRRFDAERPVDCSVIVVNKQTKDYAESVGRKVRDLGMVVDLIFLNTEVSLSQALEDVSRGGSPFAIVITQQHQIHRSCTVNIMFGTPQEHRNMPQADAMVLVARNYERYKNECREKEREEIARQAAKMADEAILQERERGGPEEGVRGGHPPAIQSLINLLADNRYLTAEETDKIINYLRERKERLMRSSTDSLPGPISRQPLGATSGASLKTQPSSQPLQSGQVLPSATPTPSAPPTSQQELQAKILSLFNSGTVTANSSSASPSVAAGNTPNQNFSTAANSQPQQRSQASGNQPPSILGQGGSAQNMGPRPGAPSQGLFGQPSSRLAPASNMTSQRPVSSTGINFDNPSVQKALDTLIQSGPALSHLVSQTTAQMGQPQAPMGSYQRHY
UniProt Q14CX7, whole entry, looked up: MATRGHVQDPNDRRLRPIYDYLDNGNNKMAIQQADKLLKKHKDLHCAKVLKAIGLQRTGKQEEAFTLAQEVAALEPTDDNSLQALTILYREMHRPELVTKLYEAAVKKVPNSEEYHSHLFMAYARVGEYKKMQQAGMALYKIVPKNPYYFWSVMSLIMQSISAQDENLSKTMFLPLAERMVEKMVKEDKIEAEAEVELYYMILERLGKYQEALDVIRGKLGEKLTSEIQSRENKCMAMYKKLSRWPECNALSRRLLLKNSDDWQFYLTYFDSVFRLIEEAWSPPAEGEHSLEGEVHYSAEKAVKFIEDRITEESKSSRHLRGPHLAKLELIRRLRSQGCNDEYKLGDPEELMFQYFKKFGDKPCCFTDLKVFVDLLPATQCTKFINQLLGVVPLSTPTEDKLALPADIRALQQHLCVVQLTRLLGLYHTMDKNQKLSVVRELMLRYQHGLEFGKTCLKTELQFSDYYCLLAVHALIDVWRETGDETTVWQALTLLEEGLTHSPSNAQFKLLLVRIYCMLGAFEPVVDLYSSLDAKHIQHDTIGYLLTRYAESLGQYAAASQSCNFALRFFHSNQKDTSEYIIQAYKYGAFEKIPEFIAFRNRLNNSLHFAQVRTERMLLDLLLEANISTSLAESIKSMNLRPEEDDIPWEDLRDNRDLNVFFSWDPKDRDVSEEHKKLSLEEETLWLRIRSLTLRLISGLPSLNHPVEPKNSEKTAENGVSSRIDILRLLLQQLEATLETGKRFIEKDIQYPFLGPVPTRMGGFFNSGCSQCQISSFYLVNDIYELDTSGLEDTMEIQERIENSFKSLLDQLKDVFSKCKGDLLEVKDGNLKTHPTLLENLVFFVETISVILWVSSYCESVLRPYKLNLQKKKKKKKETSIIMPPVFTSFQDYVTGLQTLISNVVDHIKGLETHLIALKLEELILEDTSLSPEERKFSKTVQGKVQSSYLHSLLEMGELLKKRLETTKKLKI
UniProt Q15021, whole entry, looked up: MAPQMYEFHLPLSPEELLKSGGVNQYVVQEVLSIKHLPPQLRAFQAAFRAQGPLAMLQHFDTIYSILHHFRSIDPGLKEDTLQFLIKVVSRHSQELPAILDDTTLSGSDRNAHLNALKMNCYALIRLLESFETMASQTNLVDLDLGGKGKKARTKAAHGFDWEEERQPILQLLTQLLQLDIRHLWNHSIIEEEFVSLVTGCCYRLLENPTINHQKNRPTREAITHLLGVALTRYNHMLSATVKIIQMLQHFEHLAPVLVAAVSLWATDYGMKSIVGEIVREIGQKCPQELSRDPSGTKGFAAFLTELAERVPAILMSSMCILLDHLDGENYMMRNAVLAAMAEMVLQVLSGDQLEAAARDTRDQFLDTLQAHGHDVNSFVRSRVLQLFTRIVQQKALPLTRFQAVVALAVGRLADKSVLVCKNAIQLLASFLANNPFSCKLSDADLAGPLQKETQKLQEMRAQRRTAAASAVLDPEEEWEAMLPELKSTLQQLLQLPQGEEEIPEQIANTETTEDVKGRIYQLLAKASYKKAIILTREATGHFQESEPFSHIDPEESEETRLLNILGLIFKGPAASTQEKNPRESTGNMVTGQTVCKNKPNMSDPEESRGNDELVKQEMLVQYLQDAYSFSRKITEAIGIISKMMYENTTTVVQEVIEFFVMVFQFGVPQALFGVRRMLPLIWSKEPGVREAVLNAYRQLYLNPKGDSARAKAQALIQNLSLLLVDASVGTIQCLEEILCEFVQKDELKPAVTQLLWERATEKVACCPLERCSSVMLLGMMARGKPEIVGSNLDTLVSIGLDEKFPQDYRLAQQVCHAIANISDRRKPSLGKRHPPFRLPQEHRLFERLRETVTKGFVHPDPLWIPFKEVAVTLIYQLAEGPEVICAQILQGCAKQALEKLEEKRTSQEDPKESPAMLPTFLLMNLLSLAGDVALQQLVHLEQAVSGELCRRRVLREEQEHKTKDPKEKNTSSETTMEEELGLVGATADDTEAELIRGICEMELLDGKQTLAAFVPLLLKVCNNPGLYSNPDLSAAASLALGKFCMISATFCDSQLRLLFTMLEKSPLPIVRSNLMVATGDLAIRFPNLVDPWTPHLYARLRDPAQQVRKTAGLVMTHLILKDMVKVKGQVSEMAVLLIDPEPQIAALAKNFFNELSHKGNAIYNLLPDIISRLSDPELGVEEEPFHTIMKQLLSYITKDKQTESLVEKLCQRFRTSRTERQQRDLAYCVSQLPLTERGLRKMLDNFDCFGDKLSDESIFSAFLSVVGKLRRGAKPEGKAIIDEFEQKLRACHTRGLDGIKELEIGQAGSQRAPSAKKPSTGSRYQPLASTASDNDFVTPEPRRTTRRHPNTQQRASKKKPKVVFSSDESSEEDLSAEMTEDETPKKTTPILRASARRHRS
UniProt Q13459: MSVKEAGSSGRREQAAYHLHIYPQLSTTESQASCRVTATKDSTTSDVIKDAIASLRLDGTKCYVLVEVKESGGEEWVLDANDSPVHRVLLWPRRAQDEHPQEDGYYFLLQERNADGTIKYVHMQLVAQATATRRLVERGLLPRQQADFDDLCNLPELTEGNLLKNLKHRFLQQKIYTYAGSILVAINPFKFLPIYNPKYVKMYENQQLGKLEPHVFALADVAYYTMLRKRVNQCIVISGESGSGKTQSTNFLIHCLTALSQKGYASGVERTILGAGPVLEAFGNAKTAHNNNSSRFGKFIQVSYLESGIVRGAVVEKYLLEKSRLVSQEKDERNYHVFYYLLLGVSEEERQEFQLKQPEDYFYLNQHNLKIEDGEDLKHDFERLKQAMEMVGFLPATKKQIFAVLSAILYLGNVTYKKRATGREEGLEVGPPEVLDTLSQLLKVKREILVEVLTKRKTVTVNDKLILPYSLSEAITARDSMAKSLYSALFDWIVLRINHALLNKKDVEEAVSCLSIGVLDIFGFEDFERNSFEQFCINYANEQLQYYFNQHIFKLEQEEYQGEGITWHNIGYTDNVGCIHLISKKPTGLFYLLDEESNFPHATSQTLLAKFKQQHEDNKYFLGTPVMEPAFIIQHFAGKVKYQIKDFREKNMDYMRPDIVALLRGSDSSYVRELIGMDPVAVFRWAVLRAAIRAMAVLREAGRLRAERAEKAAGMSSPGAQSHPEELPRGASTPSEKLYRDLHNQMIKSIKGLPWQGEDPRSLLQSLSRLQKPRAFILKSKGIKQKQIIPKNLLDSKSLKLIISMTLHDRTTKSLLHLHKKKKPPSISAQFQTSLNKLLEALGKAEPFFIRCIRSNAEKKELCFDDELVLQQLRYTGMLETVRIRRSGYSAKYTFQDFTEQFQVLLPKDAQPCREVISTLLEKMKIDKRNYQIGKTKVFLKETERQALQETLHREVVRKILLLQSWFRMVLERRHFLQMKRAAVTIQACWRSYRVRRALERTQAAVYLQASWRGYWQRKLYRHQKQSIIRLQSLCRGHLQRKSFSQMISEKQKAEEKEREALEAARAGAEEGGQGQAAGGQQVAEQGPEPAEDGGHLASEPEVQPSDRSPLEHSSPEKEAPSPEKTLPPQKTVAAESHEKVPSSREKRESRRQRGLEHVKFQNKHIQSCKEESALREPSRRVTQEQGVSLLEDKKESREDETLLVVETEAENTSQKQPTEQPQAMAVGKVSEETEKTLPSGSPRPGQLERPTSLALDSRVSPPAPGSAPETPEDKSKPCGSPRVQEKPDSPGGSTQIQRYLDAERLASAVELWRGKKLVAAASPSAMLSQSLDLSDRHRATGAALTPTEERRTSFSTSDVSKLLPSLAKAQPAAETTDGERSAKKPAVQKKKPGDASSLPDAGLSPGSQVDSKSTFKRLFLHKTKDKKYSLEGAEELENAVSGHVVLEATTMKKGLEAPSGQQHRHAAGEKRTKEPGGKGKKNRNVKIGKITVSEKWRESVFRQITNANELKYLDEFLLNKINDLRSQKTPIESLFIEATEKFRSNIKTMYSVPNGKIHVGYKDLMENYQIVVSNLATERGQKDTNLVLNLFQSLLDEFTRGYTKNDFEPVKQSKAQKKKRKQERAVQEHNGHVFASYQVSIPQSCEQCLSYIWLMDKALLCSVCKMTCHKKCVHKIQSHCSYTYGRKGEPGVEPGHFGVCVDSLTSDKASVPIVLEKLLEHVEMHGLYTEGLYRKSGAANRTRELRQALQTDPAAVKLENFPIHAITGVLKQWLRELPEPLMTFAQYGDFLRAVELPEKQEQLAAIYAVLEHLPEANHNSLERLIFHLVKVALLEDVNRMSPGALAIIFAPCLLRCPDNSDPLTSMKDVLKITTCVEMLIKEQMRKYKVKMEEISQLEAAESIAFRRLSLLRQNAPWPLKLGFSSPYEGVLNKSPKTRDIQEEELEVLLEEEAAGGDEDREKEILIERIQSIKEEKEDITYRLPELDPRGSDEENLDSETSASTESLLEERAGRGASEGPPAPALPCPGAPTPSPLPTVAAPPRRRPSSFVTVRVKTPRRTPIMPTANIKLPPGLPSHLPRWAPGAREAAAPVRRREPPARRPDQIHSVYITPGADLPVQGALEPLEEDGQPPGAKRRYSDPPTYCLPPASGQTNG

Assays:
Experiment in all cases: log2 fold change, soluble protein after heating vs DMSO (PISA); higher = thermal stabilisation; K562 lysate, 10 uM; active = over 0.2 and 3.5 SD of the protein, either way, in both replicates (recomputed)
alvocidib = compound: CN1CC[C@H](c2c(O)cc(O)c3c(=O)cc(-c4ccccc4Cl)oc23)[C@H](O)C1 [alvocidib]
Method in brief: (§1)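 Values give the log-two fold change in thermal stability against solvent controls, from duplicates. Crude K562 extract at 1 mg/mL protein, made by dounce homogenisation in PBS pH 7.4 with 1 mM MgCl2, was treated with 10 μM compound for 30 min. After 3 min heating across 48°C-58°C, aliquots were pooled, adjusted to 0.5% NP-40 at 4°C and centrifuged at 21,000xg for 90 min. The supernatant was measured by TMTpro 16plex LC-MS/MS with channel sums equalised.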

Tubastatin A = compound: CN1CCc2c(c3ccccc3n2Cc2ccc(C(=O)NO)cc2)C1 [Tubastatin A]
Method in brief: as §1

[1] = compound: CNC(=O)C1=CC=CC=C1NC2=NC(=NC=C2Cl)NC3=C(C=C(C=C3)N4CCOCC4)OC
Method in brief: as §1

defactinib = compound: CNC(=O)c1ccc(Nc2ncc(C(F)(F)F)c(NCc3nccnc3N(C)S(C)(=O)=O)n2)cc1 [defactinib]
Method in brief: as §1

[2] = compound: CNc1nc(-c2ccc3c(N)n[nH]c3c2)cc(N2C[C@@H](C(=O)NC3CCCCC3)CC[C@H]2C)n1
Method in brief: as §1

encorafenib = compound: COC(=O)N[C@@H](C)CNc1nccc(-c2cn(C(C)C)nc2-c2cc(Cl)cc(NS(C)(=O)=O)c2F)n1 [encorafenib]
Method in brief: as §1

[3] = compound: COC(=O)[C@H](CCSC)NC(=O)C1=C(C=C(C=C1)NC[C@H](CS)N)C2=CC=CC=C2
Method in brief: as §1

alisertib = compound: COc1cc(Nc2ncc3c(n2)-c2ccc(Cl)cc2C(c2c(F)cccc2OC)=NC3)ccc1C(=O)O [alisertib]
Method in brief: as §1

[4] = compound: COc1cc2nc(-c3cc(F)ccc3O)nc(N[C@@H]3CNC[C@H]3C(C)(C)O)c2cc1OC
Method in brief: as §1

gefitinib = compound: COc1cc2ncnc(Nc3ccc(F)c(Cl)c3)c2cc1OCCCN1CCOCC1 [gefitinib]
Method in brief: as §1

lapatinib = compound: CS(=O)(=O)CCNCc1ccc(-c2ccc3ncnc(Nc4ccc(OCc5cccc(F)c5)c(Cl)c4)c3c2)o1 [lapatinib]
Method in brief: as §1

pictilisib = compound: CS(=O)(=O)N1CCN(Cc2cc3nc(-c4cccc5[nH]ncc45)nc(N4CCOCC4)c3s2)CC1 [pictilisib]
Method in brief: as §1

crizotinib = compound: C[C@@H](Oc1cc(-c2cnn(C3CCNCC3)c2)cnc1N)c1c(Cl)ccc(F)c1Cl [crizotinib]
Method in brief: as §1

[5] = compound: C[C@H](C1=CC=C(C=C1)C(=O)NC2=C3C=CNC3=NC=C2)N
Method in brief: as §1

duvelisib = compound: C[C@H](Nc1ncnc2nc[nH]c12)c1cc2cccc(Cl)c2c(=O)n1-c1ccccc1 [duvelisib]
Method in brief: as §1

gandotinib = compound: Cc1cc(Nc2cc(CN3CCOCC3)c3nc(C)c(Cc4ccc(Cl)cc4F)n3n2)n[nH]1 [gandotinib]
Method in brief: as §1

tozasertib = compound: Cc1cc(Nc2cc(N3CCN(C)CC3)nc(Sc3ccc(NC(=O)C4CC4)cc3)n2)n[nH]1 [tozasertib]
Method in brief: as §1

doramapimod = compound: Cc1ccc(-n2nc(C(C)(C)C)cc2NC(=O)Nc2ccc(OCCN3CCOCC3)c3ccccc23)cc1 [doramapimod]
Method in brief: as §1

bafetinib = compound: Cc1ccc(NC(=O)c2ccc(CN3CC[C@H](N(C)C)C3)c(C(F)(F)F)c2)cc1Nc1nccc(-c2cncnc2)n1 [bafetinib]
Method in brief: as §1

[6] = compound: Cc1cccc(CC(=O)N2CCc3c2ccc(-c2cn(C)c4ncnc(N)c24)c3F)n1
Method in brief: as §1

Row | Target | log2 fold change (alvocidib) | log2 fold change (Tubastatin A) | log2 fold change [1] | log2 fold change (defactinib) | log2 fold change [2] | log2 fold change (encorafenib) | log2 fold change [3] | log2 fold change (alisertib) | log2 fold change [4] | log2 fold change (gefitinib) | log2 fold change (lapatinib) | log2 fold change (pictilisib) | log2 fold change (crizotinib) | log2 fold change [5] | log2 fold change (duvelisib) | log2 fold change (gandotinib) | log2 fold change (tozasertib) | log2 fold change (doramapimod) | log2 fold change (bafetinib) | log2 fold change [6]
1 | MYDGF (UniProt Q969H8) | inactive: -0.024 | inactive: 0.056 | inactive: -0.005 | inactive: -0.013 | inactive: 0.036 | inactive: 0.015 | inactive: -0.02 | inactive: -0.012 | inactive: 0.035 | inactive: -0.024 | inactive: -0.013 | inactive: 0.004 | inactive: -0.011 | inactive: -0.089 | inactive: 0.022 | inactive: 0.05 | inactive: -0.032 | inactive: -0.028 | inactive: -0.011 | inactive: 0.019
2 | NCKAP1 isoform 2 (UniProt Q9Y2A7) | inactive: -0.011 | inactive: 0.025 | inactive: 0.017 | inactive: -0.011 | inactive: -0.031 | inactive: 0.005 | inactive: -0.042 | inactive: -0.015 | inactive: 0.002 | inactive: 0.002 | inactive: -0.025 | inactive: -0.035 | inactive: -0.009 | inactive: -0.002 | inactive: -0.025 | inactive: -0.032 | inactive: 0 | inactive: -0.007 | inactive: -0.019 | inactive: -0.006
3 | NAA40 (UniProt Q86UY6) | inactive: -0.041 | inactive: -0.07 | inactive: -0.008 | inactive: -0.079 | inactive: -0.009 | inactive: 0.045 | inactive: 0.03 | inactive: -0.04 | inactive: -0.089 | inactive: 0.01 | inactive: -0.014 | inactive: 0.063 | inactive: -0.04 | inactive: -0.12 | inactive: 0.009 | inactive: -0.009 | inactive: 0.112 | inactive: 0.029 | inactive: -0.087 | inactive: 0.157
4 | NCOA5 (UniProt Q9HCD5) | inactive: 0.003 | inactive: -0.118 | inactive: 0.002 | inactive: 0.071 | inactive: 0.037 | inactive: 0.063 | inactive: -0.007 | inactive: 0.045 | inactive: -0.006 | inactive: 0.123 | inactive: 0.031 | inactive: -0.099 | inactive: -0.007 | inactive: 0.013 | inactive: 0.009 | inactive: 0.07 | inactive: 0.024 | inactive: 0.061 | inactive: -0.075 | inactive: -0.006
5 | MYL4 (UniProt P12829) | inactive: 0.019 | inactive: 0.054 | inactive: 0.019 | inactive: 0.058 | inactive: 0.024 | inactive: 0.001 | inactive: -0.096 | inactive: 0.015 | inactive: 0.021 | inactive: -0.08 | inactive: 0.007 | inactive: -0.04 | inactive: 0.01 | inactive: -0.025 | inactive: 0.014 | inactive: 0.019 | inactive: 0.019 | inactive: -0.019 | inactive: -0.046 | inactive: -0.013
6 | NDC1 (UniProt Q9BTX1) | inactive: -0.131 | inactive: -0.046 | inactive: -0.001 | inactive: -0.058 | inactive: -0.044 | inactive: 0.03 | active: -0.297 | inactive: 0.011 | inactive: 0.047 | inactive: -0.031 | inactive: -0.087 | inactive: -0.012 | inactive: -0.027 | active: -0.333 | inactive: -0.044 | inactive: 0.185 | inactive: -0.01 | inactive: -0.001 | inactive: -0.066 | active: 0.296
7 | NAA25 (UniProt Q14CX7) | inactive: 0.021 | inactive: 0.02 | inactive: -0.002 | inactive: 0.034 | inactive: -0.031 | inactive: -0.003 | inactive: 0.143 | inactive: 0.007 | inactive: -0.026 | inactive: 0.008 | inactive: -0.01 | inactive: -0.039 | inactive: -0.013 | inactive: 0.035 | inactive: -0.019 | inactive: -0.066 | inactive: -0.025 | inactive: -0.016 | inactive: -0.019 | inactive: -0.044
8 | MVB12A (UniProt Q96EY5) | inactive: -0.019 | inactive: -0.221 | inactive: -0.009 | inactive: 0.056 | inactive: 0.037 | inactive: -0.015 | inactive: -0.012 | inactive: -0.011 | inactive: -0.035 | inactive: -0.055 | inactive: 0.012 | inactive: -0.027 | inactive: -0.025 | inactive: 0 | inactive: -0.04 | inactive: -0.031 | inactive: -0.046 | inactive: 0.012 | inactive: -0.015 | inactive: -0.031
9 | NCOR1 (UniProt O75376) | inactive: -0.028 | inactive: -0.027 | inactive: 0.018 | inactive: 0.06 | inactive: 0.021 | inactive: 0.015 | inactive: -0.007 | inactive: 0.01 | inactive: 0.018 | inactive: -0.019 | inactive: 0.046 | inactive: -0.028 | inactive: 0.018 | inactive: 0.031 | inactive: -0.022 | inactive: -0.03 | inactive: -0.009 | inactive: -0.034 | inactive: -0.028 | inactive: 0.006
10 | NADK (UniProt O95544) | inactive: -0.003 | inactive: -0.022 | inactive: 0.056 | inactive: 0.015 | inactive: 0.025 | inactive: -0.008 | inactive: -0.02 | inactive: -0.004 | inactive: 0 | inactive: -0.034 | inactive: 0.016 | inactive: -0.036 | inactive: 0.015 | inactive: -0.013 | inactive: -0.004 | inactive: 0.032 | inactive: 0.032 | inactive: 0.03 | inactive: 0.068 | inactive: -0.027
11 | NCAPD2 (UniProt Q15021) | inactive: 0.007 | inactive: -0.119 | inactive: 0.013 | inactive: 0.002 | inactive: -0.018 | inactive: 0.013 | inactive: 0.076 | inactive: 0.004 | inactive: -0.005 | inactive: -0.016 | inactive: -0.033 | inactive: 0.001 | inactive: -0.049 | inactive: -0.003 | inactive: 0.014 | inactive: -0.115 | inactive: -0.006 | inactive: 0.011 | inactive: -0.036 | inactive: 0.029
12 | NBEA (UniProt Q8NFP9) | inactive: -0.114 | inactive: -0.046 | inactive: 0.006 | inactive: 0.018 | inactive: -0.042 | inactive: 0.05 | inactive: 0 | inactive: 0.009 | inactive: -0.026 | inactive: -0.028 | inactive: 0.015 | inactive: -0.032 | inactive: -0.058 | inactive: -0.103 | inactive: 0.001 | inactive: 0.059 | inactive: -0.021 | inactive: 0.137 | inactive: -0.026 | inactive: 0.121
13 | MYO9B (UniProt Q13459) | inactive: -0.034 | inactive: -0.08 | inactive: -0.019 | inactive: 0.031 | inactive: -0.012 | inactive: 0.027 | inactive: 0.159 | inactive: -0.007 | inactive: -0.008 | inactive: 0.016 | inactive: -0.022 | inactive: -0.014 | inactive: -0.029 | inactive: -0.045 | inactive: 0.004 | inactive: 0.009 | inactive: 0.045 | inactive: 0.015 | inactive: -0.04 | inactive: 0.122
14 | NACC1 (UniProt Q96RE7) | inactive: -0.02 | inactive: -0.086 | inactive: 0.002 | inactive: -0.01 | inactive: 0.016 | inactive: 0.022 | inactive: 0.024 | inactive: 0.018 | inactive: -0.012 | inactive: -0.019 | inactive: -0.032 | inactive: 0.034 | inactive: 0.01 | inactive: -0.066 | inactive: -0.002 | inactive: 0.006 | inactive: -0.015 | inactive: -0.011 | inactive: -0.078 | inactive: 0.044
15 | MYH11 isoform 2 (UniProt P35749) | inactive: -0.042 | inactive: -0.069 | inactive: -0.028 | inactive: -0.083 | inactive: 0.031 | inactive: -0.002 | inactive: 0.07 | inactive: 0.002 | inactive: -0.005 | inactive: 0.031 | inactive: 0.075 | inactive: -0.002 | inactive: 0.054 | active: 0.279 | inactive: 0.055 | inactive: -0.004 | inactive: 0.031 | inactive: -0.044 | inactive: 0.303 | inactive: -0.018
16 | MYB isoform 4 (UniProt P10242) | inactive: 0.017 | inactive: -0.147 | inactive: 0.058 | inactive: 0.006 | inactive: -0.006 | inactive: 0.056 | inactive: -0.185 | inactive: -0.008 | inactive: -0.032 | inactive: 0.094 | inactive: -0.012 | inactive: 0.197 | inactive: -0.009 | inactive: 0.104 | inactive: 0.143 | inactive: -0.168 | inactive: 0.113 | inactive: -0.039 | inactive: 0.105 | inactive: -0.098

Record cards, from the list above. Values in the order: log2 fold change (alvocidib)	log2 fold change (Tubastatin A)	log2 fold change [1]	log2 fold change (defactinib)	log2 fold change [2]	log2 fold change (encorafenib)	log2 fold change [3]	log2 fold change (alisertib)	log2 fold change [4]	log2 fold change (gefitinib)	log2 fold change (lapatinib)	log2 fold change (pictilisib)	log2 fold change (crizotinib)	log2 fold change [5]	log2 fold change (duvelisib)	log2 fold change (gandotinib)	log2 fold change (tozasertib)	log2 fold change (doramapimod)	log2 fold change (bafetinib)	log2 fold change [6]
MYO9B (UniProt Q13459) reads inactive: -0.034	inactive: -0.08	inactive: -0.019	inactive: 0.031	inactive: -0.012	inactive: 0.027	inactive: 0.159	inactive: -0.007	inactive: -0.008	inactive: 0.016	inactive: -0.022	inactive: -0.014	inactive: -0.029	inactive: -0.045	inactive: 0.004	inactive: 0.009	inactive: 0.045	inactive: 0.015	inactive: -0.04	inactive: 0.122
NCOR1 (UniProt O75376) reads inactive: -0.028	inactive: -0.027	inactive: 0.018	inactive: 0.06	inactive: 0.021	inactive: 0.015	inactive: -0.007	inactive: 0.01	inactive: 0.018	inactive: -0.019	inactive: 0.046	inactive: -0.028	inactive: 0.018	inactive: 0.031	inactive: -0.022	inactive: -0.03	inactive: -0.009	inactive: -0.034	inactive: -0.028	inactive: 0.006
